Assay results: patent publication US10779537B2, “1H-pyrrolopyridine compound, N-oxide thereof or salt thereof, agricultural and horticultural insecticide comprising the compound, and method for using the insecticide” (Nihon Nohyaku Co., Ltd., priority 2016, dated 2020)
Some entries share one result that the patent states for a list of compounds.

Experiments:
Type in all cases: in vivo
[1] = tested on: Plutella xylostella; assay: Insecticidal test on Plutella xylostella (dip of Chinese cabbage seedlings with laid eggs); conditions: 500 ppm, seedlings with laid eggs dipped about 30 seconds, 25° C., 6 days after dip treatment, criteria of Test Example 2
[2] = tested on: Myzus persicae; assay: Test for control efficacy on Myzus persicae (foliar application, potted Chinese cabbage); conditions: 500 ppm dispersion in water, foliar application to potted Chinese cabbage, 6 days after application
[3] = tested on: Laodelphax striatellus; assay: Insecticidal test on Laodelphax striatellus (rice seedling dip); conditions: 500 ppm, rice seedlings dipped 30 seconds, ten 3rd-instar larvae, 8 days after inoculation

SMILES | insecticidal efficacy (corrected mortality rate, hatched larvae) [1] | control efficacy (control rate) [2] | insecticidal efficacy (corrected mortality rate) [3]
CCS(=O)(=O)c1cc(I)cnc1-c1c(C#N)c2ncc(C(F)(F)F)cc2n1C(=O)OC(C)(C)C [Compound 3-16] | A (the corrected mortality rate is 100%) | A (the control rate is 100%) | A (the corrected mortality rate is 100%)
CCS(=O)(=O)c1cc(-c2cccc(C(F)(F)F)c2)cnc1-c1c(Cl)c2ncc(C(F)(F)F)cc2n1COC [Compound 3-17] | A (the corrected mortality rate is 100%) | A (the control rate is 100%) | A (the corrected mortality rate is 100%)
C#CCn1c(-c2ncc(-c3cccc(C(F)(F)F)c3)cc2S(=O)(=O)CC)c(F)c2ncc(C(F)(F)F)cc21 [Compound 3-20] | A (the corrected mortality rate is 100%) | A (the control rate is 100%) | A (the corrected mortality rate is 100%)
C=CCn1c(-c2ncc(-c3cccc(C(F)(F)F)c3)cc2S(=O)(=O)CC)c(F)c2ncc(C(F)(F)F)cc21 [Compound 3-21] | A (the corrected mortality rate is 100%) | A (the control rate is 100%) | A (the corrected mortality rate is 100%)
CCS(=O)(=O)c1cc(-c2cccc(C(F)(F)F)c2)cnc1-c1c(F)c2ncc(C(F)(F)F)cc2n1CC1CC1 [Compound 3-22] | A (the corrected mortality rate is 100%) | A (the control rate is 100%) | A (the corrected mortality rate is 100%)
CCS(=O)(=O)c1cc(-c2cccc(C(F)(F)F)c2)cnc1-c1c(F)c2ncc(C(F)(F)F)cc2n1COC [Compound 3-24] | A (the corrected mortality rate is 100%) | A (the control rate is 100%) | A (the corrected mortality rate is 100%)
CCOCn1c(-c2ncc(-c3cccc(C(F)(F)F)c3)cc2S(=O)(=O)CC)c(F)c2ncc(C(F)(F)F)cc21 [Compound 3-25] | A (the corrected mortality rate is 100%) | A (the control rate is 100%) | A (the corrected mortality rate is 100%)
CCS(=O)(=O)c1cc(-c2cccc(C(F)(F)F)c2)cnc1-c1c(Cl)c2ncc(C(F)(F)F)cc2n1CC(F)F [Compound 3-27] | A (the corrected mortality rate is 100%) | A (the control rate is 100%) | A (the corrected mortality rate is 100%)
CCS(=O)(=O)c1cc(-c2ccc(OC(C)C)c(Cl)c2)cnc1-c1c(Cl)c2ncc(C(F)(F)F)cc2n1C(C)=O [Compound 3-31] | A (the corrected mortality rate is 100%) | A (the control rate is 100%) | A (the corrected mortality rate is 100%)
CCS(=O)(=O)c1cc(C2CC2)cnc1-c1c(Cl)c2ncc(C(F)(F)F)cc2n1COC [Compound 3-37] | A (the corrected mortality rate is 100%) | A (the control rate is 100%) | A (the corrected mortality rate is 100%)
CCS(=O)(=O)c1cc(C2CC2)cnc1-c1c(Cl)c2ncc(C(F)(F)F)cc2n1CC(F)F [Compound 3-40] | A (the corrected mortality rate is 100%) | A (the control rate is 100%) | A (the corrected mortality rate is 100%)
CCS(=O)(=O)c1cc(C2CC2)cnc1-c1c(F)c2ncc(C(F)(F)F)cc2n1C(C)=O [Compound 3-44] | A (the corrected mortality rate is 100%) | A (the control rate is 100%) | A (the corrected mortality rate is 100%)
CCC(=O)n1c(-c2ncc(C3CC3)cc2S(=O)(=O)CC)c(F)c2ncc(C(F)(F)F)cc21 [Compound 3-45] | A (the corrected mortality rate is 100%) | A (the control rate is 100%) | A (the corrected mortality rate is 100%)
CCS(=O)(=O)c1cc(C2CC2)cnc1-c1c(F)c2ncc(C(F)(F)F)cc2n1C(=O)C(C)C [Compound 3-46] | A (the corrected mortality rate is 100%) | A (the control rate is 100%) | A (the corrected mortality rate is 100%)
CCS(=O)(=O)c1cc(C2CC2)cnc1-c1c(F)c2ncc(C(F)(F)F)cc2n1C(=O)OC [Compound 3-47] | A (the corrected mortality rate is 100%) | A (the control rate is 100%) | A (the corrected mortality rate is 100%)
CCOC(=O)n1c(-c2ncc(C3CC3)cc2S(=O)(=O)CC)c(F)c2ncc(C(F)(F)F)cc21 [Compound 3-48] | A (the corrected mortality rate is 100%) | A (the control rate is 100%) | A (the corrected mortality rate is 100%)
CCS(=O)(=O)c1cc(C2CC2)cnc1-c1c(F)c2ncc(C(F)(F)F)cc2n1COC [Compound 3-49] | A (the corrected mortality rate is 100%) | A (the control rate is 100%) | A (the corrected mortality rate is 100%)
CCOCn1c(-c2ncc(C3CC3)cc2S(=O)(=O)CC)c(F)c2ncc(C(F)(F)F)cc21 [Compound 3-50] | A (the corrected mortality rate is 100%) | A (the control rate is 100%) | A (the corrected mortality rate is 100%)
CCS(=O)(=O)c1cc(C2CC2)cnc1-c1c(F)c2ncc(C(F)(F)F)cc2n1CC(F)(F)F [Compound 3-51] | A (the corrected mortality rate is 100%) | A (the control rate is 100%) | A (the corrected mortality rate is 100%)
CCS(=O)(=O)c1cc(C2CC2)cnc1-c1c(F)c2ncc(C(F)(F)F)cc2n1CC(F)F [Compound 3-52] | A (the corrected mortality rate is 100%) | A (the control rate is 100%) | A (the corrected mortality rate is 100%)
C#CCn1c(-c2ncc(C3CC3)cc2S(=O)(=O)CC)c(F)c2ncc(C(F)(F)F)cc21 [Compound 3-53] | A (the corrected mortality rate is 100%) | A (the control rate is 100%) | A (the corrected mortality rate is 100%)
C=CCn1c(-c2ncc(C3CC3)cc2S(=O)(=O)CC)c(F)c2ncc(C(F)(F)F)cc21 [Compound 3-54] | A (the corrected mortality rate is 100%) | A (the control rate is 100%) | A (the corrected mortality rate is 100%)
CCS(=O)(=O)c1cc(C2CC2)cnc1-c1c(F)c2ncc(C(F)(F)F)cc2n1CC1CC1 [Compound 3-55] | A (the corrected mortality rate is 100%) | A (the control rate is 100%) | A (the corrected mortality rate is 100%)
CCS(=O)(=O)c1cc(C(F)(F)F)cnc1-c1c(F)c2ncc(C(F)(F)F)cc2n1C(=O)OC(C)(C)C [Compound 4-1] | A (the corrected mortality rate is 100%) | A (the control rate is 100%) | A (the corrected mortality rate is 100%)
CCSc1cc(C(F)(F)F)cnc1-c1[nH]c2cc(C(F)(F)F)c[n+]([O-])c2c1Cl [Compound 5-1] | A (the corrected mortality rate is 100%) | A (the control rate is 100%) | A (the corrected mortality rate is 100%)
CCSc1cc(I)cnc1-c1[nH]c2cc(C(F)(F)F)c[n+]([O-])c2c1Cl [Compound 5-2] | A (the corrected mortality rate is 100%) | A (the control rate is 100%) | A (the corrected mortality rate is 100%)
CCSc1cc(I)cnc1-c1c(Cl)c2c(cc(C(F)(F)F)c[n+]2[O-])n1C(=O)OC(C)(C)C [Compound 5-3] | A (the corrected mortality rate is 100%) | A (the control rate is 100%) | A (the corrected mortality rate is 100%)
CCS(=O)(=O)c1cc(I)cnc1-c1[nH]c2cc(C(F)(F)F)c[n+]([O-])c2c1Cl [Compound 5-4] | A (the corrected mortality rate is 100%) | A (the control rate is 100%) | A (the corrected mortality rate is 100%)
